The nature of this series: Resist curing properties: lowest exposure quantity of a phenol resin/melamine negative resist film. To be noted: for Resist curing properties: 1 part photoacid generator in phenol resin/CYMEL 300 resist, film about 3 μm, PEB 10 minutes 120° C., 0.5% potassium hydroxide development; for Lowest exposure quantity: lowest exposure (365 nm) giving change in film thickness before and after development within 10%. How it is done: A resin solution of 75 parts of a phenol resin (“PHENOLITE TD 431” available from DIC Corporation), 25 parts of a melamine curing agent (“CYMEL 300” available from MITSUI CYANAMID Co., Ltd.), 1 part of a synthesized photoacid generator and 200 parts of propylene glycol monomethyl ether acetate (hereinafter, abbreviated as PGMEA) was applied on a glass substrate of 10 cm square under a condition of 10 seconds at 1000 rpm using a spin coater. Then, the applied film was dried under vacuum for 5 minutes at 25° C., after which the film was dried for 3 minutes on an 80° C. hot plate to form a resist film with a film thickness of about 3 μm. The whole face of this resist film was exposed with a prescribed dose of ultraviolet light having a wavelength limited by the L-34 filter (a filter cutting light with a wavelength less than 340 nm, available from Kenko Optical Co., Ltd.) using an ultraviolet irradiation device (HMW-661F-01 available from ORC MANUFACTURING CO., LTD.). In this connection, a wavelength of 365 nm was measured for the integrated exposure quantity. Then, the film was subjected to post exposure baking (PEB) for 10 minutes with a 120° C. fair wind dryer, after which the film was immersed for 30 seconds in a 0.5% potassium hydroxide solution to be subjected to development, washed immediately with water and dried.
The film thickness of this resist film was measured using a shape measuring microscope (super-depth shape measuring microscope VK-8550, available from KEYENCE CORPORATION).
In this context, the resist curing properties were evaluated according to the following criteria on the basis of the lowest exposure quantity with which a change in film thickness of the resist film before and after development of within 10% was attained.
◯: The lowest exposure quantity is 250 mJ/cm^2 or less. Δ: The lowest exposure quantity is greater than 250 mJ/cm^2 and 500 mJ/cm^2 or less. x: The lowest exposure quantity is greater than 500 mJ/cm^2.

Take `O=C1c2cc(C34CC5CC(CC(C5)C3)C4)cc3cc(C45CC6CC(CC(C6)C4)C5)cc(c23)C(=O)N1OS(=O)(=O)c1c(F)c(F)c(F)c(F)c1F` [Example A-35, 3,6-diadamantyl-1,8-naphthalimide pentafluorobenzenesulfonate]: the Resist curing properties result is reported as “∘” and the Lowest exposure quantity stood at 100 mJ/cm^2.

As to `c1ccc(Sc2ccc([S+](c3ccccc3)c3ccccc3)cc2)cc1` [A′-2, reference compound], the Lowest exposure quantity is 880 mJ/cm^2.

In the case of `CC(C)(C)Cc1cc2c3c(cc(CC(C)(C)C)cc3c1)C(=O)N(OS(=O)(=O)C(F)(F)F)C2=O` [Example A-14, 3,6-dineopentyl-1,8-naphthalimide trifluoromethanesulfonate], the Resist curing properties result is recorded as “∘” and the Lowest exposure quantity is on record as 50 mJ/cm^2.

Take `CC(C)(C)Cc1cc2c3c(cc(CC(C)(C)C)cc3c1)C(=O)N(OS(=O)(=O)CC13CCC(CC1=O)C3(C)C)C2=O` (stereo not drawn) [Example A-54, 3,6-dineopentyl-1,8-naphthalimide-(+)-10-camphorsulfonate]: the Resist curing properties entry is reported as “∘” and the Lowest exposure quantity was 140 mJ/cm^2. On the same counts, the results for `CCCOc1ccc2c3c(cccc13)C(=O)N(OS(=O)(=O)c1c(F)c(F)c(F)c(F)c1F)C2=O` [Example A-22, 4-n-propoxy-1,8-naphthalimide pentafluorobenzenesulfonate] are “∘” and 140 mJ/cm^2.

Consider `O=C1c2cccc3c(OCC(F)(F)C(F)F)ccc(c23)C(=O)N1OS(=O)(=O)C(F)(F)F` [Example A-3, 4-(2,2,3,3-tetrafluoro-1-propoxy)-1,8-naphthalimide trifluoromethanesulfonate], for which the Resist curing properties result is listed as “∘” and the Lowest exposure quantity was 60 mJ/cm^2. For `O=C1c2cccc3c(Oc4cccc(C(F)(F)F)c4)ccc(c23)C(=O)N1OS(=O)(=O)c1c(F)c(F)c(F)c(F)c1F` [Example A-26, 4-(3-trifluoromethylphenoxy)-1,8-naphthalimide pentafluorobenzenesulfonate] the same measures were “∘” and 100 mJ/cm^2. Turning to `CCCCC(CC)C(=O)Oc1cc2c3c(cccc3c1)C(=O)N(OS(=O)(=O)CC13CCC(CC1=O)C3(C)C)C2=O` (stereo not drawn) [Example A-49, 3-(2-ethylhexanoyloxy)-1,8-naphthalimide-(+)-10-camphorsulfonate], the Resist curing properties entry is listed as “∘” and the Lowest exposure quantity was 120 mJ/cm^2. On the same counts, the results for `O=C1c2cccc3c(Cl)ccc(c23)C(=O)N1OS(=O)(=O)C(F)(F)F` [Example A-19, 4-chloro-1,8-naphthalimide trifluoromethanesulfonate] are “∘” and 85 mJ/cm^2. On the same counts, the results for `CCCCC(CC)C(=O)Oc1cc2c3c(cccc3c1)C(=O)N(OS(=O)(=O)C(F)(F)F)C2=O` (centres unmarked) [Example A-9, 3-(2-ethylhexanoyloxy)-1,8-naphthalimide trifluoromethanesulfonate] are “∘” and 40 mJ/cm^2.

With `O=C(Cc1ccccc1)c1ccc2c3c(cccc13)C(=O)N(OS(=O)(=O)c1c(F)c(F)c(F)c(F)c1F)C2=O` [Example A-24, 4-phenylacetyl-1,8-naphthalimide pentafluorobenzenesulfonate], the Resist curing properties result is given as “∘” and the Lowest exposure quantity was 135 mJ/cm^2. For `O=C(Oc1cc2c3c(cccc3c1)C(=O)N(OS(=O)(=O)c1c(F)c(F)c(F)c(F)c1F)C2=O)c1ccccc1` [Example A-31, 3-benzoyloxy-1,8-naphthalimide pentafluorobenzenesulfonate] the same measures were “∘” and 120 mJ/cm^2.

`O=C1c2cccc3cccc(c23)C(=O)N1OS(=O)(=O)C(F)(F)F` [A′-1, 1,8-naphthalimide trifluoromethanesulfonate, reference compound] gave a Lowest exposure quantity of 310 mJ/cm^2.

On to `CC(C)(C)c1cc2c3c(cc(C(C)(C)C)cc3c1)C(=O)N(OS(=O)(=O)c1c(F)c(F)c(F)c(F)c1F)C2=O` [Example A-33, 3,6-di-tert-butyl-1,8-naphthalimide pentafluorobenzenesulfonate], for which the Resist curing properties entry is on record as “∘” and the Lowest exposure quantity turned out to be 85 mJ/cm^2.

The values are drawn from patent US20160368879A1, “PHOTOACID GENERATOR, AND RESIN COMPOSITION FOR PHOTOLITHOGRAPHY” (SAN-APRO LTD., priority 2013, published 2016).
